Measured data: PubChem BioAssay AID743454 (Peter MacCallum Cancer Centre, 2014)

Screen: 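Knock-downs lowering viability or raising caspase 3/7 activity in vorinostat-treated resistant cells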 (primary screen)
System: human HCT116-VR colon cancer cells, selected for vorinostat resistance
Reagents: siRNA pool against human genes, 40 nM siRNA pool
Timing: vorinostat for 24 h, read-out about 72 h after transfection
Challenge: vorinostat at 2.5 µM final
Read-out: 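Cell viability by CellTiter-Fluor and caspase 3/7 activity by luminescence, each scaled to mock wells per plate, duplicates averaged, then robust z-scored over all plates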
Direction: viability robust z-score: higher = more viable cells than screen typical; caspase robust z-score: higher = more caspase 3/7 activity than screen typical
Active means: 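a knock-down is a hit when classed RV1 or RV2 for lowered viability, or CA1 or CA2 for caspase activation; those lethal without drug were dropped; hits were retested singly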
The deposit covers about 18,000 reagents; shown is a part drawn at random. In the full data, 450 (2.5%) are marked active. 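Single biological run; no consistent viability z cut-off exists, so the class columns, not z-scores, define the calls.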 A number with no mark means an inactive call. Reagent sequences are not shown.

Depletion of HLTF came out at: viability hit class no change; caspase hit class no change; viability robust z-score 0.6; caspase robust z-score 3.03.
After knock-down of PHLDB2, the screen gave viability hit class no change; caspase hit class no change; viability robust z-score 0.2; caspase robust z-score -0.57.
Knock-down of MYL9 resulted in: viability hit class no change; caspase hit class no change; viability robust z-score 0.96; caspase robust z-score -0.6.
Against DCANP1, the entry reads viability hit class no change; caspase hit class no change; viability robust z-score -0.01; caspase robust z-score -0.58.
Against TMPRSS11D the deposit lists viability hit class no change; caspase hit class no change; viability robust z-score 0.03; caspase robust z-score -1.07.
Depletion of FBH1 came out at: viability hit class no change; caspase hit class no change; viability robust z-score -0.92; caspase robust z-score 4.5.
With knock-down of IRX2, the record shows viability hit class no change; caspase hit class no change; viability robust z-score 0.14; caspase robust z-score -0.04.
For DEFB1 the deposit lists viability hit class no change; caspase hit class no change; viability robust z-score -0.15; caspase robust z-score -0.06.
With knock-down of C16orf89, the screen gave viability hit class no change; caspase hit class no change; viability robust z-score 1.08; caspase robust z-score -0.94.
CT47A6 gave viability hit class no change; caspase hit class no change; viability robust z-score 1.42; caspase robust z-score 0.59.
For DUSP13B the deposit lists viability hit class no change; caspase hit class no change; viability robust z-score 0.54; caspase robust z-score 0.42.
After knock-down of COASY, the record shows viability hit class no change; caspase hit class no change; viability robust z-score -1.08; caspase robust z-score 0.96.
For MMP19, the values are viability hit class no change; caspase hit class no change; viability robust z-score 0.28; caspase robust z-score -0.08.
FANCF showed viability hit class no change; caspase hit class no change; viability robust z-score 1.07; caspase robust z-score 0.66.

Targets above whose target name starts with M or m:
MYL9 → viability hit class: no change; caspase hit class: no change; viability robust z-score: 0.96; caspase robust z-score: -0.6
MMP19 → viability hit class: no change; caspase hit class: no change; viability robust z-score: 0.28; caspase robust z-score: -0.08
